From patent publication US5342771A, “Functionalized imidazolinone haptens and protein conjugates thereof useful in assays for the detection of imidazolinone herbicides” (American Cyanamid Company, priority 1993, dated 1994)

Tested on: antibody
Experiment: ELISA standard curve with imazaquin standards (OD 650)
Type: binding, New Zealand white rabbits
Settings: mean of triplicate

## CC(C)C1(C)N=C(c2nc3ccccc3cc2C(=O)O)NC1=O (stereo not shown) [Imazaquin, 2-(4-isopropyl-4-methyl-5-oxo-2-imidazolin-2-yl)-3-quinolinecarboxylic acid]
Imazaquin concentration 0.39 ng/mL
  OD 650 Reading: 1.452
Imazaquin concentration 0.78 ng/mL
  OD 650 Reading: 1.334
Imazaquin concentration 1.56 ng/mL
  OD 650 Reading: 1.184
Imazaquin concentration 3.12 ng/mL
  OD 650 Reading: 1.064
Imazaquin concentration 6.25 ng/mL
  OD 650 Reading: 0.860
Imazaquin concentration 12.5 ng/mL
  OD 650 Reading: 0.734
Imazaquin concentration 25.0 ng/mL
  OD 650 Reading: 0.564
